Results: patent US9233318 (dated 2016)

Test: peptide synthesis
Conditions: acetate; for crude HPLC purity: late stage modification step; for final purity (method not given): purification step, HPLC

## caspofungin acetate
Run 1
  crude HPLC purity: 78.64%
  final purity (method not given): 99.85%
Run 2
  crude HPLC purity: 47.09%
  final purity (method not given): 99.88%
Run 3
  final purity (method not given): 99.81%
Run 4
  final purity (method not given): 99.46%
Run 5
  final purity (method not given): 99.88%
Run 6
  final purity (method not given): 99.90%
Run 7
  final purity (method not given): 99.71%
Run 8
  final purity (method not given): 99.61%
Run 9
  final purity (method not given): 99.01%
Run 10
  final purity (method not given): 99.71%
